Record: PubChem BioAssay AID1259254 (NCATS, 2017)
Shown is one part, drawn at random, of about 59,000 reagents. In the full data, about 1,550 (2.6%) were called active. 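G2 share is only a proxy for re-replication; each gene was hit by three separate siRNAs, and active genes were retested.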 Raw values are not corrected between plates. Entries without a mark were called inactive. Reagents against one gene are numbered here. Not stated in the record: the amount of reagent.

Screen: 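Gene knock-downs that lead to re-replication, shown by excess G2 DNA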 (primary screen)
Cells: human HCT116 colorectal cancer cells
Reagent: single siRNA against human genes
Timing: 3 days
Detection: 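Nuclei stained with Hoechst and imaged; cell-cycle phase assigned by DNA content; G2 share scaled per plate, non-targeting siRNA 0%, GMNN siRNA 100%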
Reading the numbers: G2 robust z-score and G2 cells, % of GMNN control: higher = more G2 cells, more excess DNA replication; raw share of cells in G2: higher = larger share of cells with G2 DNA content
Hit rule: 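Active siRNAs have a G2 robust z of 5 or more median absolute deviations over the median, which in these data means about 38% or higher of GMNN control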

no.	Target gene	siRNA no.	G2 robust z-score	G2 cells, % of GMNN control	raw share of cells in G2 (%)
1	DNM1P49 (GeneID 730058)	1	-0.0849	2.37	4.04
2	DNM1P49 (GeneID 730058)	2	-0.318	0.728	4.38
3	DNM1P49 (GeneID 730058)	3	1.82	15.8	8.55
4	COXFA4L3 (GeneID 84419)	1	-0.636	-1.5	1.95
5	COXFA4L3 (GeneID 84419)	2	1.15	11.1	7.79
6	COXFA4L3 (GeneID 84419)	3	1.35	12.4	7.14
7	DUOXA1 (GeneID 90527)	1	2.76	22.4	13.6
8	DUOXA1 (GeneID 90527)	2	1.41	12.9	7.03
9	DUOXA1 (GeneID 90527)	3	-0.512	-0.637	2.72
10	SGTA (GeneID 6449)	1	-0.618	-1.38	2.91
11	SGTA (GeneID 6449)	2	-0.114	2.16	5.86
12	SGTA (GeneID 6449)	3	0.0579	3.37	4.33
13	C11orf16 (GeneID 56673)	1	4.11	31.9	16.9
14	C11orf16 (GeneID 56673)	2	1.77	15.4	11.8
15	C11orf16 (GeneID 56673)	3	0.602	7.2	5.31
16	DEPP1 (GeneID 11067)	1	-0.0188	2.83	6.1
17	DEPP1 (GeneID 11067)	2	-0.306	0.814	4.47
18	DEPP1 (GeneID 11067)	3	0.158	4.08	4.7
19	LIAT1 (GeneID 400566)	1	-0.318	0.727	4.08
20	LIAT1 (GeneID 400566)	2	-0.169	1.78	4.22
21	LIAT1 (GeneID 400566)	3	-0.0838	2.38	5.78
22	PKNOX1 (GeneID 5316)	1	0.646	7.51	6.44
23	PKNOX1 (GeneID 5316)	2	0.531	6.71	7.99
24	PKNOX1 (GeneID 5316)	3	0.123	3.83	4.5
25	LHFPL5 (GeneID 222662)	1	0.0437	3.27	4.77
26	LHFPL5 (GeneID 222662)	2	2.55	20.9	10.3
27	LHFPL5 (GeneID 222662)	3	-0.183	1.68	3.73
28	GML (GeneID 2765)	1	-1.05	-4.39	3.24
29	GML (GeneID 2765)	2	0.0709	3.47	5.36
30	GML (GeneID 2765)	3	0.59	7.12	6.31
31	AP1S3 (GeneID 130340)	1	1.37	12.6	9.24
32	AP1S3 (GeneID 130340)	2	-1.26	-5.93	2.42
33	AP1S3 (GeneID 130340)	3	0.134	3.91	7.49
34	RSRC1 (GeneID 51319)	1	-0.133	2.03	4.33
35	RSRC1 (GeneID 51319)	2	0.291	5.02	6.38
36	RSRC1 (GeneID 51319)	3	2.19	18.4	9.27
37	SLC5A1 (GeneID 6523)	1	1.11	10.8	9.3
38	SLC5A1 (GeneID 6523)	2	0.0834	3.55	5.77
39	SLC5A1 (GeneID 6523)	3	1.97	16.8	9.53
40	SPMAP1 (GeneID 388381)	1	2.26	18.8	10.2
41	SPMAP1 (GeneID 388381)	2	0.342	5.37	5.74
42	SPMAP1 (GeneID 388381)	3	-0.434	-0.0879	4.6
43	TENT5A (GeneID 55603)	1	0.315	5.19	6.52
44	TENT5A (GeneID 55603)	2	1.59	14.1	10
45	TENT5A (GeneID 55603)	3	0.00955	3.03	4.1
46	TASOR2 (GeneID 54906)	1	-0.935	-3.61	2.31
47	TASOR2 (GeneID 54906)	2	0.253	4.75	6.27
48	TASOR2 (GeneID 54906)	3	-0.64	-1.54	2.68
49	ZNF565 (GeneID 147929)	1	1.42	13	7.56
50	ZNF565 (GeneID 147929)	2	-0.564	-1	2.82
51	ZNF565 (GeneID 147929)	3	2.61	21.3	11
52	GABRB2 (GeneID 2561)	1	3.4	26.9	15.1
53	GABRB2 (GeneID 2561)	2	-0.376	0.321	4.89
54	GABRB2 (GeneID 2561)	3	0.585	7.09	7.14
55	CEP72 (GeneID 55722)	1	4.98	38	19.1
56	CEP72 (GeneID 55722)	2	0.836	8.85	7.8
57	CEP72 (GeneID 55722)	3	-0.552	-0.916	2.84
58	USP7 (GeneID 7874)	1	-1.63	-8.47	2.61
59	USP7 (GeneID 7874)	2	2.37	19.6	11.9
60	USP7 (GeneID 7874)	3	-0.959	-3.78	2.5
61	CHRNB2 (GeneID 1141)	1	1.61	14.3	10.5
62	CHRNB2 (GeneID 1141)	2	-0.562	-0.987	4.45
63	CHRNB2 (GeneID 1141)	3	-0.509	-0.614	4.14
64	SLC9C2 (GeneID 284525)	1	-0.729	-2.16	4.12
65	SLC9C2 (GeneID 284525)	2	-0.557	-0.954	5.49
66	SLC9C2 (GeneID 284525)	3	0.0891	3.59	5.6
67	TAF11L2 (GeneID 391742)	1	0.181	4.24	5.35
68	TAF11L2 (GeneID 391742)	2	-0.167	1.79	4.23
69	TAF11L2 (GeneID 391742)	3	-0.76	-2.38	3.8
70	ACAD10 (GeneID 80724)	1	1.04	10.3	9.72
71	ACAD10 (GeneID 80724)	2	-0.696	-1.93	3.5
72	ACAD10 (GeneID 80724)	3	-0.485	-0.444	4.62
73	UTP14C (GeneID 9724)	1	-1.12	-4.9	3.12
74	UTP14C (GeneID 9724)	2	-0.28	1	4.36
75	UTP14C (GeneID 9724)	3	-0.746	-2.28	2.57
76	PIGR (GeneID 5284)	1	-0.239	1.28	3.88
77	PIGR (GeneID 5284)	2	-0.481	-0.415	4.18
78	PIGR (GeneID 5284)	3	-0.495	-0.517	4.63
79	CARD6 (GeneID 84674)	1	-0.888	-3.28	3.57
80	CARD6 (GeneID 84674)	2	-0.459	-0.259	4.1
81	CARD6 (GeneID 84674)	3	-0.118	2.14	6.32
82	LOC646484 (retired record) (GeneID 646484)	1	0.337	5.34	5.79
83	LOC646484 (retired record) (GeneID 646484)	2	-0.343	0.552	3.43
84	LOC646484 (retired record) (GeneID 646484)	3	-0.0905	2.33	3.78
85	TAF1 (GeneID 6872)	1	3.24	25.8	14.1
86	TAF1 (GeneID 6872)	2	10.8 (active)	79	32
87	TAF1 (GeneID 6872)	3	0.2	4.38	5.57
